Laboratory results reported in PubChem BioAssay AID720504 (National Center for Advancing Translational Sciences (NCATS), 2013).
The campaign covered roughly 360,000 compounds. About 10,000 (2.8%) were called active. The shares of active, inactive and inconclusive entries below differ from those in the screen. Calls follow the shape of the dose curve; as a rule, active = well fitted inhibition curve with a large enough effect; inconclusive = small, poorly fitted or top-dose-only effect; inactive = flat fitted curve, though single readings scatter. Where the call is inconclusive, the potency comes from a doubtful curve fit.

The chains behind the UniProt entries cited, without tags or fusion partners.
UniProt P53350, whole entry, looked up: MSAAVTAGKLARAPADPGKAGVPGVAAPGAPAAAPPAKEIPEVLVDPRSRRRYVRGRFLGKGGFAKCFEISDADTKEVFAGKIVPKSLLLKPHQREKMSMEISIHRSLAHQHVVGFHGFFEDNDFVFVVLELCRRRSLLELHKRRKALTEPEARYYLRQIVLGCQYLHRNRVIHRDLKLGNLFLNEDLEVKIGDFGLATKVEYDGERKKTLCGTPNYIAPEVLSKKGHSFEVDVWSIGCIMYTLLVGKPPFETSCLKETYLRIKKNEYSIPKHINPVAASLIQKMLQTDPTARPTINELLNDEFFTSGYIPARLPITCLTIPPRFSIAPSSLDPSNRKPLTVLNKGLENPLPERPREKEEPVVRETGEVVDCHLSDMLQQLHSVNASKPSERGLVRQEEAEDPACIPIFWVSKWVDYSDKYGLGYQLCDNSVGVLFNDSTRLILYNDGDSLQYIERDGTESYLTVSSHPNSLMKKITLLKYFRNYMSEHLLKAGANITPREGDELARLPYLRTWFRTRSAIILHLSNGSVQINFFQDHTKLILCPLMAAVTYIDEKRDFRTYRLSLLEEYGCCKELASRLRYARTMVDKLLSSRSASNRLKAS

Molecular target: Serine/threonine-protein kinase PLK1 (Homo sapiens) (UniProt P53350)
Assay: qHTS for Inhibitors of PLK1-PDB (polo-like kinase 1 - polo-box domain): Primary Screen; also: nearly all actives have a fitted effect of over 65% in size; as to max response, negative = inhibition: series mostly up to about 57 µM
Details: Plk1 PBD binding of FITC phosphopeptide, fluorescence polarization
% is scaled to controls: 0 for no effect and ±100 for the full control effect; potency is read from the fitted curve at half-maximal effect.

Row | Compound | max response, negative = inhibition | Potency
1 | O=[N+]([O-])c1ccc(OCc2n[nH]c(=S)n2-c2ccccc2)cc1 | inactive: -10.8% | –
2 | CCOC(=O)N1CCN(C(=O)CSc2nnc(-c3cc(OC)cc(OC)c3)o2)CC1 | inactive: 1.94% | –
3 | O=C(COc1ccc2ccccc2c1)Nc1ccncc1 | inactive: -2.65% | –
4 | O=S(=O)(/N=C(/Sc1ccccc1)c1ccccc1)c1ccccc1 | – | active: 1.89 µM
5 | CCc1nnc(NC(=O)c2ccc(S(=O)(=O)N(C)c3ccccc3)cc2)o1 | – | active: 29.9 µM
6 | c1ccc(-c2cnc(CSc3ncnc4sccc34)o2)cc1 | – | inconclusive: 16.8 µM [inhibitor, partial curve]
7 | CC(=O)c1c(C)[nH]c(C(=O)OCC(=O)Nc2sc3c(c2C#N)CCC(C)C3)c1C (configuration not stated) | – | inconclusive: 33.6 µM [inhibitor, partial curve]
8 | COc1ccc(OCCn2cc(/C=C(\C#N)C(=O)NCc3ccco3)c3ccccc32)cc1 | inactive: -8.72% | –
9 | CCOC(=O)c1c(C)[nH]c(C)c1C(=O)COC(=O)CCOc1ccccc1OC | – | inconclusive: 26.7 µM [inhibitor, partial curve]
10 | O=c1c2c(n3cnnc3n1C1CCCCC1)-c1ccccc1CC21CCCCC1 | inactive: -5.53% | –
11 | N#Cc1cnc2c(-c3ccccc3)c(-c3ccccc3)nn2c1N | – | active: 18.9 µM
12 | CCCCN(C(=O)c1ccc([N+](=O)[O-])o1)c1c(N)n(CC(C)C)c(=O)[nH]c1=O | – | inconclusive: 23.8 µM [inhibitor, single point]
13 | COc1ccc(N2CCN(CC(=O)c3ccccc3)CC2)cc1 | – | inconclusive: 23.8 µM [inhibitor, single point]
14 | COc1ccc(/C=C/C(=O)NC(=S)NN2CCCCC2c2cccnc2)cc1OC (configuration not stated) | – | inconclusive: 18.9 µM [inhibitor, single point]
15 | Cc1ccccc1NC(=O)c1ccc2c(O)c(S(=O)(=O)c3ccccc3)c(=O)[nH]c2c1 | inactive: -17.2% | –
16 | CNC(=S)N(CCc1c(C)[nH]c2ccc(C)cc12)Cc1cccs1 | inactive: 8.86% | –
17 | COCCNC(=S)Nc1ccc(N2CCCCC2)cc1 | – | active: 3.77 µM
18 | CCOc1cc(/C=C2/NC(=O)N(CC(=O)Nc3cccc(C)c3)C2=O)ccc1OCC(N)=O | – | inconclusive: 37.7 µM [inhibitor, single point]
19 | COc1ccc(-c2nn(-c3ccccc3)cc2/C=N/NC(=S)NC(C)C)cc1OC | inactive: -11.9% | –
20 | Cc1ccc(-c2onc3ccc(C=O)cc23)cc1 | – | inconclusive: 29.9 µM [inhibitor, partial curve]
21 | COc1cc(/C=N/NC(=O)C(=O)/C=C2\NC(C)(C)Cc3ccccc32)ccc1O | – | inconclusive: 21.2 µM [inhibitor, partial curve]
22 | COCCCNC(=O)/C(C#N)=C/c1ccc(OCC(=O)O)c(OC)c1 | – | active: 21.2 µM
23 | S=C(CN1CCCC1=S)NCCc1ccccc1 | inactive: -10.9% | –
24 | COc1ccccc1C(=O)NC(=O)COC(=O)c1cc[n+]([O-])cc1 | inactive: -2.37% | –

Row | Compound | max response, negative = inhibition | Potency
25 | CCCCC(=O)NC(=S)NNS(=O)(=O)c1ccccc1 | – | active: 11.9 µM
26 | NC(=O)c1c(NC(=O)CN2C(=O)CCC2=O)sc2c1CCCCC2 | – | inconclusive: 26.7 µM [inhibitor, partial curve]
27 | O=S(=O)(NN1CCOCC1)c1cc(Cl)cc(Cl)c1O | – | active: 15 µM
28 | O=C(COC(=O)CCc1c[nH]c(=O)[nH]1)Nc1ccccc1Cl | – | inconclusive: 29.9 µM [inhibitor, single point]
29 | Cc1nc([N+](=O)[O-])nn1C12CC3CC(CC(Br)(C3)C1)C2 | – | active: 4.74 µM
30 | CCn1cc(CNC(=O)CSc2nc(-c3ccc(OC)c(OC)c3)cc(C(F)(F)F)n2)c(C)n1 | – | inconclusive: 23.8 µM [inhibitor, partial curve]
31 | Cc1cc(O)c(C(=O)/C=C/c2c(F)c(F)c(F)c(F)c2F)c(=O)o1 | – | inconclusive: 21.2 µM [inhibitor, partial curve]
32 | O=[N+]([O-])c1ccc2oc(C(O)c3cccc(Cl)c3)cc2c1 (configuration not stated) | inactive: -4.67% | –
33 | COc1ccc(C2CC(c3ccccc3)Nc3nc(NC(=O)c4cccs4)nn32)cc1 (configuration not stated) | inactive: 1.52% | –
34 | O=[N+]([O-])c1cc(-c2ccccc2)cc([N+](=O)[O-])c1O | – | inconclusive: 29.9 µM [inhibitor, partial curve]
35 | Cc1ccc(Nc2nc(N)c3ccccc3n2)cc1Cl | inactive: 3.36% | –
36 | CCN(CC)S(=O)(=O)c1cccc(NC(=O)CN(C)Cc2cccc(OC)c2)c1 | inactive: -6.79% | –
37 | CCOC(=O)c1ccc(N2C=C(C(=O)OC)C(c3cccc(O)c3)C(C(=O)OC)=C2)cc1 | – | inconclusive: 21.2 µM [inhibitor, partial curve]
38 | COCCn1nnnc1SCC(=O)NCc1ccc2c(c1)OCO2 | – | inconclusive: 21.2 µM [inhibitor, partial curve]
39 | CSc1ccccc1NC(=O)c1ccc(C)o1 | – | inconclusive: 16.8 µM [inhibitor, partial curve]
40 | CCN(CC)C(=O)Cn1cc(SCC(=O)Nc2cc(C)on2)c2ccccc21 | – | inconclusive: 37.7 µM [inhibitor, single point]
41 | Cc1ccc(S(=O)(=O)Nc2nc3ccccc3nc2NCc2ccco2)cc1C | – | inconclusive: 29.9 µM [inhibitor, partial curve]
42 | Cc1nc2cc(N)ccc2n1-c1ccccc1 | – | inconclusive: 37.7 µM [inhibitor, single point]
43 | CC(=O)Oc1ccc([N+](=O)[O-])cc1N1C(=O)c2ccccc2C1=O | – | inconclusive: 15 µM [inhibitor, partial curve]
44 | CCc1ccc2c(c1)C1(NN=C(c3ccc(C)cc3)S1)C(=O)N2 (configuration not stated) | – | inconclusive: 23.8 µM [inhibitor, partial curve]
45 | c1ccc(CN2CCN(c3ncnc4nc[nH]c34)CC2)cc1 | inactive: -13.9% | –
46 | N#C/C(=C(/O)COc1ccc(Cl)cc1)c1nc2ccccc2s1 | – | inconclusive: 15 µM [inhibitor, partial curve]
47 | CCOc1ccc(C(=O)NCCCn2ccnc2)cc1 | inactive: 1.67% | –

Twelve entries from above, reformatted.
Row,Compound,"max response, negative = inhibition",Potency
9,CCOC(=O)c1c(C)[nH]c(C)c1C(=O)COC(=O)CCOc1ccccc1OC,–,"inconclusive: 26.7 µM [inhibitor, partial curve]"
10,O=c1c2c(n3cnnc3n1C1CCCCC1)-c1ccccc1CC21CCCCC1,inactive: -5.53%,–
11,N#Cc1cnc2c(-c3ccccc3)c(-c3ccccc3)nn2c1N,–,active: 18.9 µM
12,CCCCN(C(=O)c1ccc([N+](=O)[O-])o1)c1c(N)n(CC(C)C)c(=O)[nH]c1=O,–,"inconclusive: 23.8 µM [inhibitor, single point]"
13,COc1ccc(N2CCN(CC(=O)c3ccccc3)CC2)cc1,–,"inconclusive: 23.8 µM [inhibitor, single point]"
14,COc1ccc(/C=C/C(=O)NC(=S)NN2CCCCC2c2cccnc2)cc1OC (configuration not stated),–,"inconclusive: 18.9 µM [inhibitor, single point]"
15,Cc1ccccc1NC(=O)c1ccc2c(O)c(S(=O)(=O)c3ccccc3)c(=O)[nH]c2c1,inactive: -17.2%,–
16,CNC(=S)N(CCc1c(C)[nH]c2ccc(C)cc12)Cc1cccs1,inactive: 8.86%,–
17,COCCNC(=S)Nc1ccc(N2CCCCC2)cc1,–,active: 3.77 µM
18,CCOc1cc(/C=C2/NC(=O)N(CC(=O)Nc3cccc(C)c3)C2=O)ccc1OCC(N)=O,–,"inconclusive: 37.7 µM [inhibitor, single point]"
19,COc1ccc(-c2nn(-c3ccccc3)cc2/C=N/NC(=S)NC(C)C)cc1OC,inactive: -11.9%,–
20,Cc1ccc(-c2onc3ccc(C=O)cc23)cc1,–,"inconclusive: 29.9 µM [inhibitor, partial curve]"
